Assay results published in the supplement of paper PMC10849652.
The other results are listed elsewhere or left out.

Chains of the proteins cited; added tags and fusions are not shown. Lines headed by an entry give the natural chain unless they say otherwise; changes in a name come on top.
UniProt P49257: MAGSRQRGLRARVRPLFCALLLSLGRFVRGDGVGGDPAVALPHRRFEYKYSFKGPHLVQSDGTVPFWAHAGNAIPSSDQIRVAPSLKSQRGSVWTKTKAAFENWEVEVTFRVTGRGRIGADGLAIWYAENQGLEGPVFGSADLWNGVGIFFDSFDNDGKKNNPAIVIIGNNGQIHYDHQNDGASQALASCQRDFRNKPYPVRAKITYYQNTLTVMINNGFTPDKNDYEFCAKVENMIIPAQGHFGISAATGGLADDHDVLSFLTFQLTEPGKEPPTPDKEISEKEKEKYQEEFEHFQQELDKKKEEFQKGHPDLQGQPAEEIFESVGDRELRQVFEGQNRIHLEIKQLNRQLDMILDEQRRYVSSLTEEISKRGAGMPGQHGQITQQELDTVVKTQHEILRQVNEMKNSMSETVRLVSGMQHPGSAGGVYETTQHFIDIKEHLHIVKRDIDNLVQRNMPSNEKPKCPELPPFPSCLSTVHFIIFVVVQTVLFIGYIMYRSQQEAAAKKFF
UniProt Q9NUP9: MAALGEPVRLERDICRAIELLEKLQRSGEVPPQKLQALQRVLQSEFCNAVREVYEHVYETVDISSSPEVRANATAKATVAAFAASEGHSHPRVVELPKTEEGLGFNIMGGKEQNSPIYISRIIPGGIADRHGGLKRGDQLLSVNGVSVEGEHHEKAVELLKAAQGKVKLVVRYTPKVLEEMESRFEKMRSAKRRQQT
UniProt Q14847: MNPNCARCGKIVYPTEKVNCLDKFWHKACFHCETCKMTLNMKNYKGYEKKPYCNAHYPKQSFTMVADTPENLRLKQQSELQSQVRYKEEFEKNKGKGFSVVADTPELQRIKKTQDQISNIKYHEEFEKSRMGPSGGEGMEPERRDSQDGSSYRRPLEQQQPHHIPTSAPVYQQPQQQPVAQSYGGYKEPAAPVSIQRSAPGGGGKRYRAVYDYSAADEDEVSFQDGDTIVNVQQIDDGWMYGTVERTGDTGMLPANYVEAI
UniProt Q92604: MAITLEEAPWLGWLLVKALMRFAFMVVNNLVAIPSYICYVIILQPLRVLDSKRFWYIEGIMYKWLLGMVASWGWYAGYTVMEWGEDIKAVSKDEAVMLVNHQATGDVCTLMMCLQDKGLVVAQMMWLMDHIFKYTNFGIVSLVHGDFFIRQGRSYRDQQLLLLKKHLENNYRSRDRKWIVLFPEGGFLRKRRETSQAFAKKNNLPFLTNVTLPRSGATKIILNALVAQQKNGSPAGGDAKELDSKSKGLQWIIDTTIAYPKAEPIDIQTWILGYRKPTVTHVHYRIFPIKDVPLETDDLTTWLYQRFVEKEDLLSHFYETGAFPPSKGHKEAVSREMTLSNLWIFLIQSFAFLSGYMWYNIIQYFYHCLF
UniProt Q96EK9: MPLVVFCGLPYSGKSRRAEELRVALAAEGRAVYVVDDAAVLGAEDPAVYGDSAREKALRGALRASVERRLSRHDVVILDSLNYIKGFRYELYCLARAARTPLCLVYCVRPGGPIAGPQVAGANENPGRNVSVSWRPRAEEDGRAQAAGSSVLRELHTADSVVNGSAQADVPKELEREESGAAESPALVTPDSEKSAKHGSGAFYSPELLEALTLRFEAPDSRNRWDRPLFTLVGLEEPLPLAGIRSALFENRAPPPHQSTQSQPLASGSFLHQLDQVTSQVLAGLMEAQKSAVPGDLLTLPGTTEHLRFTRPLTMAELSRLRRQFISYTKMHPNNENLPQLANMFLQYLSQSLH
UniProt Q6IAA8, whole entry, looked up: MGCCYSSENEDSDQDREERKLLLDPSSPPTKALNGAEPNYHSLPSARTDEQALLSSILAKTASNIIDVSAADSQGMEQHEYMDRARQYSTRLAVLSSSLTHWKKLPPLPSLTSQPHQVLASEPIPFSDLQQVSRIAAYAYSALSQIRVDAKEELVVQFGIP
UniProt Q9UIC8: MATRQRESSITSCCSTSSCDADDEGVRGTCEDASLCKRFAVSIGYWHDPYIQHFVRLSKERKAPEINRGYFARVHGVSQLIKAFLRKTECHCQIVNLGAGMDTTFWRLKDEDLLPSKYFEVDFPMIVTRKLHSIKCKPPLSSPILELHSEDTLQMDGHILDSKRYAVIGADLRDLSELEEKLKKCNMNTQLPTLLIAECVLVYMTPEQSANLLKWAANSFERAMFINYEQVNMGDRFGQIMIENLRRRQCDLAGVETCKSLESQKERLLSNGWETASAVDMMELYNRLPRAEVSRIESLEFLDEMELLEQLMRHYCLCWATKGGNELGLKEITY
UniProt Q9H9A6: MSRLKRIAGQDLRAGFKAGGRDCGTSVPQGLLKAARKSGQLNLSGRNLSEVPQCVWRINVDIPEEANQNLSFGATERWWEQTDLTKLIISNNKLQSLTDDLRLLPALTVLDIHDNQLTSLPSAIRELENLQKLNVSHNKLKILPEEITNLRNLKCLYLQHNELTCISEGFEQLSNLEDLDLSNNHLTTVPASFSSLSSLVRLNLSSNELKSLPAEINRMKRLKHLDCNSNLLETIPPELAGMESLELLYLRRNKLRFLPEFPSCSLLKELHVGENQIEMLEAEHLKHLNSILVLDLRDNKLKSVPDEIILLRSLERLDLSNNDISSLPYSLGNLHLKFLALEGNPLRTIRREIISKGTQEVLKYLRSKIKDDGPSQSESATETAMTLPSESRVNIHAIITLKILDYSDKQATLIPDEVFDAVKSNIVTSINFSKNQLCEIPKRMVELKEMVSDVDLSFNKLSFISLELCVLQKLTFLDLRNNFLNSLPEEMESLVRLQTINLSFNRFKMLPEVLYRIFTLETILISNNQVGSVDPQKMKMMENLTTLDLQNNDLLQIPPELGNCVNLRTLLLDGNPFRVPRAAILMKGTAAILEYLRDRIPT
UniProt Q6PJG9: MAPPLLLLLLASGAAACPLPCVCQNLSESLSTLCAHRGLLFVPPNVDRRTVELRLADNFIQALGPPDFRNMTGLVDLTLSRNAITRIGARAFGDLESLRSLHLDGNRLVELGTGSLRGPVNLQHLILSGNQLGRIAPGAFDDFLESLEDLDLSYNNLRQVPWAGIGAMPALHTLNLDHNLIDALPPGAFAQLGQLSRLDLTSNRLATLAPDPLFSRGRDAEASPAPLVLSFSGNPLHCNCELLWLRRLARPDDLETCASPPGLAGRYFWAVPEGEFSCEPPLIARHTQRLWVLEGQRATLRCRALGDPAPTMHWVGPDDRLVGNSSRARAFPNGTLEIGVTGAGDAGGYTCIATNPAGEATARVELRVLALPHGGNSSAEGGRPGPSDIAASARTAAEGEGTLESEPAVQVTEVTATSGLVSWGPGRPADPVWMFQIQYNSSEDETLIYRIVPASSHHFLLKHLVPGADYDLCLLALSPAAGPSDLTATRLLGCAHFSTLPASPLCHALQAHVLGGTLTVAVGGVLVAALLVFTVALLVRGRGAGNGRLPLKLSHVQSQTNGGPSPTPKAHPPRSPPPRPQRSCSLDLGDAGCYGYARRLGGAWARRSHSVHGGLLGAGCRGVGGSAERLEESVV
UniProt Q13094: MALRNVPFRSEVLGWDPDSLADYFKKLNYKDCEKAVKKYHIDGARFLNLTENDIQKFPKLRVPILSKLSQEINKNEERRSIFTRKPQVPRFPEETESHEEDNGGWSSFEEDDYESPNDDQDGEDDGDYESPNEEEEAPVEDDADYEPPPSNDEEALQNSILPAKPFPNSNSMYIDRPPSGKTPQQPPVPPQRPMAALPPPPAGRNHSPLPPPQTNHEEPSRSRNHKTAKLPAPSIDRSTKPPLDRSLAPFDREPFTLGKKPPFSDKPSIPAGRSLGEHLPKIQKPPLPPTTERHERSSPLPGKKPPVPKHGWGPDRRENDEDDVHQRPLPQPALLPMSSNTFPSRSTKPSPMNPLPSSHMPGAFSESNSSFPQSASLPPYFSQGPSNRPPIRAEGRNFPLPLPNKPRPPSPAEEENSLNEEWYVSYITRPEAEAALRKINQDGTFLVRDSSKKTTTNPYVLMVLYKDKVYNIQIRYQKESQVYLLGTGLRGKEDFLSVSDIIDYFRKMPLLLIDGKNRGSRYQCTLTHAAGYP
UniProt Q8NG48: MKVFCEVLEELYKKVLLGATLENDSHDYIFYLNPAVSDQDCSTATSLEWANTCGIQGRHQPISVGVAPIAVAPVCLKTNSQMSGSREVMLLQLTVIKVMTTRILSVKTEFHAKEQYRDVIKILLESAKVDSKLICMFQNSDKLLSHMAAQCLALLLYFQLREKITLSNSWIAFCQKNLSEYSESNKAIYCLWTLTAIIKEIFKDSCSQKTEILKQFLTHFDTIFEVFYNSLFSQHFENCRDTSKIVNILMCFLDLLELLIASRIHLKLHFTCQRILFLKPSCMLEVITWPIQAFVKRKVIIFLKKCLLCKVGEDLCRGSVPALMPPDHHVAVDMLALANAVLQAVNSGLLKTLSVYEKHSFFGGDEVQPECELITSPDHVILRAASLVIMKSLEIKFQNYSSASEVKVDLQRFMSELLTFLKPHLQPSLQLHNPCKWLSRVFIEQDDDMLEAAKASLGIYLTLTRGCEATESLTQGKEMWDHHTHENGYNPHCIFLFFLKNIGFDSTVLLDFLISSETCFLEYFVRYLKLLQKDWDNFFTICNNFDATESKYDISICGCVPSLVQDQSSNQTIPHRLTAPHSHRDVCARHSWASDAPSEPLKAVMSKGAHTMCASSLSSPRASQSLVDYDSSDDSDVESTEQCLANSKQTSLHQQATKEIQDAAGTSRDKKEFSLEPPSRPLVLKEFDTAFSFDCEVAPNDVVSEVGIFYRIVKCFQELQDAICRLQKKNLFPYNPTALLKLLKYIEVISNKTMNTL
UniProt Q8TCA0: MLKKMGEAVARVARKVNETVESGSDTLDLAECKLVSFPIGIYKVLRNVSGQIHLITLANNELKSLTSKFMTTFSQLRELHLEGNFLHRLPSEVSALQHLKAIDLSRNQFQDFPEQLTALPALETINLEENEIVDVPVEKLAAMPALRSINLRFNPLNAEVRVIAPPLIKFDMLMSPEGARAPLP
UniProt Q9C0E8: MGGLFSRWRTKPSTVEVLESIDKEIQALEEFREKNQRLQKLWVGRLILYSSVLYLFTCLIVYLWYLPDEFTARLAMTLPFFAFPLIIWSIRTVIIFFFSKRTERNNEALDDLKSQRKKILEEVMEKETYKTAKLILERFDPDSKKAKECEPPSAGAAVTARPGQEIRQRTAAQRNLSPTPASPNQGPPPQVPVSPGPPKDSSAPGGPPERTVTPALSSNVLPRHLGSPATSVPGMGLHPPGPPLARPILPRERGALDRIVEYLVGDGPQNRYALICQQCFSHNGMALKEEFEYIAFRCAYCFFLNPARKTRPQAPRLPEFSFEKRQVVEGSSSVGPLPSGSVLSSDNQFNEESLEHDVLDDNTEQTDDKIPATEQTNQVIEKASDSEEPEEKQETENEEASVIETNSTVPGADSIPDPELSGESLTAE
UniProt P83111: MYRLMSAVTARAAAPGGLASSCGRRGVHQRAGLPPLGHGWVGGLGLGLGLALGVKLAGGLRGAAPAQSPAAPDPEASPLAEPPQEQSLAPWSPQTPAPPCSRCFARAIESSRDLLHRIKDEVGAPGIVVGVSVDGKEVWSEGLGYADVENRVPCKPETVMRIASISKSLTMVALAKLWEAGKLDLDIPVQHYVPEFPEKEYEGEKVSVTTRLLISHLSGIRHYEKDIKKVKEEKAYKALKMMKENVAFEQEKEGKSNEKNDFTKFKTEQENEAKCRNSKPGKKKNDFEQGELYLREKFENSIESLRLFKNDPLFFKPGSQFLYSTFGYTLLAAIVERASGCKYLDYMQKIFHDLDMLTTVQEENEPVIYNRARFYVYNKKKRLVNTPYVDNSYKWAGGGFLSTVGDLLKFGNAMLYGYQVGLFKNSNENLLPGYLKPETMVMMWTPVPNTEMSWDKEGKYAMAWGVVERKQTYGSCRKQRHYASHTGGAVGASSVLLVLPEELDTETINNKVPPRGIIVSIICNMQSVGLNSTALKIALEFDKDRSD
UniProt Q9BRT6: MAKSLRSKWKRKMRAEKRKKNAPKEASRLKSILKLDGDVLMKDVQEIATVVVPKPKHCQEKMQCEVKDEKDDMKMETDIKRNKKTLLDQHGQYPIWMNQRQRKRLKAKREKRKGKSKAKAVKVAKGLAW
UniProt Q6P1A2: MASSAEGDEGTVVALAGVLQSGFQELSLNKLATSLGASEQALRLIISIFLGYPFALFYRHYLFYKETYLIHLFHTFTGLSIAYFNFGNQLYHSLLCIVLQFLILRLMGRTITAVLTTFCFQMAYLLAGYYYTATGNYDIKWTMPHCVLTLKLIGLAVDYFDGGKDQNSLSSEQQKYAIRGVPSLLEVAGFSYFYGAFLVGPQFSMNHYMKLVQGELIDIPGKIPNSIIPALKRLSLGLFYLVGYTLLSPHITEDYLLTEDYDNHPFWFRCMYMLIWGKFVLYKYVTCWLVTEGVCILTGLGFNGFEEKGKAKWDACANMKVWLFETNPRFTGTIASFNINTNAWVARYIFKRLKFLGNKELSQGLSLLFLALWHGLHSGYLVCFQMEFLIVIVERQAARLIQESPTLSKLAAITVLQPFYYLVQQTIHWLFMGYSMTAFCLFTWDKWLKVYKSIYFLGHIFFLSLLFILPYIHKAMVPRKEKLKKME

What was measured:
Assay in all cases: log2 fold change, soluble protein after heating vs DMSO (PISA); higher = thermal stabilisation; K562 cells, 10 uM, 30 min; active = over 0.2 and 3.5 SD of the protein, either way, in both replicates (recomputed)
erlotinib = compound: C#Cc1cccc(Nc2ncnc3cc(OCCOC)c(OCCOC)cc23)c1 [erlotinib]
Outline: (§1)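 Quantification of soluble protein used TMTpro 16plex LC-MS/MS, with channel sums equalised. Samples were the supernatant after 21,000xg for 90 min of pooled aliquots from K562 cells (2×10^6 cells/mL) treated with 10 μM compound for 30 min, heated for 3 min over 48°C-58°C, and extracted in PBS with 0.5% NP-40 at 4°C. Values, from duplicates, describe thermal stability against control samples on a log2 fold-change scale.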

[1] = compound: C/C(=N\NC(=O)C1=CC(=CC=C1)S(=O)(=O)N2CCOCC2)/C3=C(C=CC(=C3)Cl)O
Outline: as §1

[2] = compound: C1=CC(=C(C=C1Cl)C2=NC3=NC=CN=C3C(=N2)NC4=CC=NC=C4)F
Outline: as §1

[3] = compound: C1=CC(=CC=C1C2=NC3=C(N2)C=C(C=C3)C(=O)N)OC4=CC=C(C=C4)Cl
Outline: as §1

[4] = compound: C1=CC2=C(C=CC(=C2)/C=C\3/C(=O)NC(=NCC4=CC=CS4)S3)N=C1
Outline: as §1

[5] = compound: C1=CC2=NC=CN=C2C=C1/C=C/3\C(=O)NC(=O)S3
Outline: as §1

[6] = compound: C1=CC=C(C=C1)C2=NC(=C(N2)C3=CC=NC=C3)C4=CC(=C(C=C4)Cl)O
Outline: as §1

[7] = compound: C1=CC=C2C(=C1)C3=NNC4=CC=CC(=C43)C2=O
Outline: as §1

[8] = compound: C1CCN(C1)C(=O)NC2=CC=CC(=C2)NC3=NC=C(C(=N3)NCCC4=CN=CN4)Br
Outline: as §1

[9] = compound: C1CN(CCC1(CC2=CC=C(C=C2)Cl)N)C3=NC=NC4=C3C=CN4
Outline: as §1

Measured: log2 fold change

LMAN1 (UniProt P49257)
inactive: erlotinib 0.012 | [1] -0.066 | [2] 0.025 | [3] -0.028 | [4] 0.045 | [5] 0.026 | [6] 0.019 | [7] -0.03 | [8] 0.048 | [9] 0.015

LARS2 (UniProt Q15031)
inactive: erlotinib 0.018 | [1] 0.076 | [2] 0.028 | [3] -0.022 | [4] 0.025 | [5] -0.007 | [6] 0.028 | [7] -0.013 | [8] -0.016 | [9] 0.002

LIN7C (UniProt Q9NUP9)
inactive: erlotinib 0.035 | [1] 0.042 | [2] -0.033 | [3] 0.039 | [4] -0.032 | [5] 0.015 | [6] 0.029 | [7] -0.08 | [8] 0.088 | [9] -0.058

Two consecutive records from above, quoted:
LARS2 (UniProt Q15031)
inactive: erlotinib 0.018 | [1] 0.076 | [2] 0.028 | [3] -0.022 | [4] 0.025 | [5] -0.007 | [6] 0.028 | [7] -0.013 | [8] -0.016 | [9] 0.002

LIN7C (UniProt Q9NUP9)
inactive: erlotinib 0.035 | [1] 0.042 | [2] -0.033 | [3] 0.039 | [4] -0.032 | [5] 0.015 | [6] 0.029 | [7] -0.08 | [8] 0.088 | [9] -0.058

The list continues.

LLGL2 (UniProt Q6P1M3)
inactive: erlotinib 0.16 | [1] -0.062 | [2] 0.022 | [3] 0.022 | [4] -0.009 | [5] 0.03 | [6] -0.257 | [7] 0.023

LBR (UniProt Q14739)
inactive: erlotinib 0.009 | [1] 0.122 | [2] 0.043 | [3] -0.016 | [4] 0.029 | [5] 0.034 | [6] 0.059 | [7] -0.002 | [8] 0.037 | [9] 0.21

LENG8 (UniProt Q96PV6)
inactive: erlotinib -0.072 | [1] 0.133 | [2] 0.091 | [3] 0.108 | [4] -0.024 | [5] -0.037 | [6] -0.141 | [7] 0.096 | [8] 0.152 | [9] -0.229

LASP1 (UniProt Q14847)
inactive: erlotinib 0.016 | [1] -0.013 | [2] 0.058 | [3] 0.008 | [4] -0.009 | [5] 0 | [6] -0.035 | [7] 0 | [8] -0.001 | [9] 0.068

LPIN2 (UniProt Q92539)
inactive: erlotinib 0.021 | [1] -0.015 | [2] -0.084 | [3] 0.045 | [4] 0.05 | [5] 0.006 | [6] -0.012 | [7] -0.01 | [8] -0.04 | [9] 0.061

LANCL2 (UniProt Q9NS86)
inactive: erlotinib 0.016 | [1] 0.012 | [2] 0.031 | [3] 0.033 | [4] -0.01 | [5] 0.027 | [6] -0.033 | [7] -0.024 | [8] -0.032 | [9] 0.037

LRPPRC (UniProt P42704)
inactive: erlotinib 0.265 | [1] 0.526 | [2] 0.002 | [3] -0.255 | [4] 0.204 | [5] -0.148 | [6] 0.185 | [7] -0.223 | [8] -0.133 | [9] -0.197

LMTK2 (UniProt Q8IWU2)
inactive: erlotinib -0.055 | [1] -0.032 | [2] -0.02 | [3] -0.051 | [4] 0.035 | [5] 0.133 | [6] 0.055 | [7] 0.011 | [8] -0.021 | [9] -0.009

LPGAT1 (UniProt Q92604)
inactive: erlotinib -0.005 | [1] 0.022 | [2] 0.201 | [3] -0.274 | [4] 0.183 | [5] 0.098 | [6] -0.043 | [7] -0.025 | [8] 0.017 | [9] 0.115

KTI12 (UniProt Q96EK9)
inactive: erlotinib 0.141 | [1] 0.004 | [2] 0.016 | [3] -0.027 | [4] 0.038 | [5] -0.089 | [6] 0.022 | [7] 0.038 | [8] 0.096 | [9] 0.013

LAMTOR1 (UniProt Q6IAA8)
inactive: erlotinib -0.059 | [1] 0.017 | [2] 0.005 | [3] 0.075 | [4] 0.061 | [5] 0.024 | [6] 0.055 | [7] 0.052 | [8] -0.075 | [9] -0.041

LIG1 (UniProt P18858)
inactive: erlotinib 0.117 | [1] 0.092 | [2] 0.084 | [3] -0.02 | [4] 0.12 | [5] 0.025 | [6] 0.108 | [7] 0.113 | [8] -0.104 | [9] -0.039

LCMT1 (UniProt Q9UIC8)
inactive: erlotinib 0.041 | [1] 0.084 | [2] 0.008 | [3] 0.013 | [4] 0.044 | [5] 0.014 | [6] 0.056 | [7] 0.021 | [8] 0.02 | [9] -0.008

LRRC40 (UniProt Q9H9A6)
inactive: erlotinib 0.124 | [1] 0.131 | [2] -0.03 | [3] 0.023 | [4] 0.055 | [5] 0.006 | [6] 0.046 | [7] 0.028 | [8] -0.064 | [9] -0.103

LRFN4 (UniProt Q6PJG9)
inactive: erlotinib -0.168 | [1] -0.156 | [2] 0.047 | [3] -0.251 | [4] 0.02 | [5] 0.094 | [6] 0.022 | [7] 0.05 | [8] -0.181 | [9] -0.052

LDB1 (UniProt Q86U70)
inactive: erlotinib -0.061 | [1] 0.018 | [2] -0.006 | [3] 0.042 | [4] -0.007 | [5] -0.013 | [6] 0.065 | [7] -0.01 | [8] 0.015 | [9] 0.021

LCP2 (UniProt Q13094)
inactive: erlotinib 0.013 | [1] -0.022 | [2] 0.01 | [3] -0.075 | [4] 0.088 | [5] 0.115 | [6] 0.032 | [7] -0.038 | [8] -0.124 | [9] 0.057

LARP7 isoform 3 (UniProt Q4G0J3)
inactive: erlotinib 0.01 | [1] 0.119 | [2] 0.022 | [3] 0.034 | [4] 0.06 | [5] 0.023 | [6] 0.025 | [7] -0.055 | [8] -0.052 | [9] 0.045

LMBR1 isoform 3 (UniProt Q8WVP7)
inactive: erlotinib 0.148 | [1] -0.016 | [2] -0.034 | [3] 0.071 | [4] -0.046 | [5] 0.081 | [6] -0.14 | [7] -0.013 | [8] 0.037 | [9] 0.15

LINS1 (UniProt Q8NG48)
inactive: erlotinib 0.032 | [1] 0.312 | [2] 0.281 | [3] -0.027 | [4] -0.236 | [5] -0.033 | [6] -0.137 | [7] 0.026

LRRC20 (UniProt Q8TCA0)
inactive: erlotinib 0.036 | [1] 0.03 | [2] 0.255 | [3] -0.014 | [4] 0.139 | [5] 0.013 | [6] 0.049 | [7] 0.016 | [8] -0.098 | [9] 0.193

LNPK (UniProt Q9C0E8)
inactive: erlotinib 0.011 | [1] -0.028 | [2] 0.05 | [3] 0 | [4] -0.018 | [5] 0.058 | [6] 0 | [7] -0.02 | [8] 0.007 | [9] 0.089

LACTB (UniProt P83111)
inactive: erlotinib -0.022 | [1] -0.05 | [2] -0.08 | [3] 0.076 | [4] -0.055 | [5] 0.017 | [6] 0.048 | [7] 0.071 | [8] 0.074 | [9] -0.041

LMBRD2 (UniProt Q68DH5)
inactive: erlotinib 0.015 | [1] -0.007 | [2] 0.097 | [3] 0.011 | [4] 0.022 | [5] 0.038 | [6] 0.016 | [7] -0.118 | [8] -0.073 | [9] 0.1

LEO1 (UniProt Q8WVC0)
inactive: erlotinib 0.132 | [1] 0.108 | [2] 0.194 | [3] -0.079 | [4] -0.006 | [5] 0.007 | [6] -0.035 | [7] -0.039 | [8] -0.076 | [9] -0.045

LLPH (UniProt Q9BRT6)
inactive: erlotinib -0.222 | [1] -0.148 | [2] -0.596 | [3] 0.053 | [4] -0.071 | [5] 0.036 | [6] -0.193 | [7] 0.057 | [8] 0.075 | [9] -0.18

LPCAT3 (UniProt Q6P1A2)
inactive: erlotinib -0.062 | [1] 0.028 | [2] 0.032 | [3] 0.07 | [4] 0.152 | [5] 0.071 | [6] 0.211 | [7] 0.014 | [8] 0.059 | [9] 0.002
